# Library screening results

The values are deposited in ChEMBL (CHEMBL3988442, “University of Dundee, Small-Polar-MMV Screening Library” (2021)).

Results are given as percent effect. The record does not define 0% and 100%; most values in the screen are far below 50% and negative numbers occur (in some assays of this library far below -100). The compounds are a random part of those screened.

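Whole-cell assay for inhibitors of Mycobacterium tuberculosis growth, labelled Cornell in the record; the read-out is not stated. The concentration is filed as 10 mM, unlikely as a test dose, so the dose is not known. Higher means stronger inhibition (inferred from two other growth screens of the library). Size under these conditions: about 53,000 compounds, about 900 of them at 50% or above in at least one test.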

SMILES | percent effect
[H][C@@]12CC[C@H](Oc3cccc(F)c3)[C@]1([H])CN(C(=O)c1cnco1)C2 | 20.96%
CSC(CNS(=O)(=O)c1cnn(C)c1)c1cccc(Cl)c1 (centres unmarked) | 24.19%
CC(C)c1n[nH]c(C(=O)Nc2ccccn2)c1Br | 26.9%
O=C(O)c1ccn(-c2ccccc2NC(=O)c2ccccc2Cl)n1 | 0.02367%
CS(=O)(=O)CCSCc1cc(F)cc2cccnc12 | -6.961%
CC(C)COC(=O)N1CC(=O)N(CCc2ccccc2)CC(O)C1 (centres unmarked) | -25.05%
CC(C)c1nn(C)c(Cl)c1CNCc1ccc2c(c1)OCO2.Cl | -27.79%
CCc1nsc(N2CCC3(CC2)OCCO3)n1 | 20.29%
Cc1cc2c(N)nc(=O)n(CC(=O)Nc3cccc(Cl)c3)c2s1 | 44.85%
CCC(C)NC(=O)Nc1cccc(OCCCC#N)c1 (centres unmarked) | -0.4736%
COc1cccc(CNc2c(O)c(=O)c2=O)c1 | 30.26%
[H][C@]12CCC[C@@]1(COc1cccnc1)CN(C(=O)Cc1ccco1)C2 | 4.425%
O=C(NCC1CCN(CCc2ccccc2)C1)NCC1(O)CCC1 (centres unmarked) | 3.677%
O=C(c1cc(COc2ccc3c(c2)OCO3)[nH]n1)N1CCOCC1 | 35.93%
CC(C)NC(=O)N1CC[C@@H](N(C)C)[C@@H]1Cc1ccncc1.O=C(O)C(F)(F)F.O=C(O)C(F)(F)F | -37.21%
NC(=O)CN(C(=O)c1cccc(C(F)(F)F)c1)C1CCCC1 | 2.864%
CC(Cn1cccn1)NCc1nc(-c2ccccc2Cl)no1 (centres unmarked) | 0.6176%
O=C(Cc1csc(-c2ccccc2Cl)n1)NCc1cccc(C(=O)O)c1 | 18.25%
CN(C(=O)CNCCn1cccn1)C1(C#N)CCCCC1 | -6.268%
COc1cccc2c1OCC(CNC(=O)Cc1c(C)nc(N)nc1C)C2 (centres unmarked) | -2.503%
COCCC(=O)N1CCC2(CCN(Cc3cccc(F)c3)CC2)CC1.O=C(O)C(F)(F)F | 9.467%
CC(C)c1nc(CNC(=O)c2ccc(C(C)N3CCCCC3)o2)cs1 (centres unmarked) | -26.62%
CCN(C(=O)c1nc2c(s1)CCCN2c1ccc(C)nn1)C(C)C | 10.96%
CCC(Nc1nc(C)nc2c1cnn2C)c1ncnn1CC (centres unmarked) | -0.5521%
Cc1ccsc1CN(CCN(C)C)C(=O)c1cc2ccccc2[nH]1 | 2.255%
CN(Cc1cc(C(C)(C)C)n[nH]1)C(=O)c1ccccc1C1CCNC1 (centres unmarked) | 0.9423%
CC(=O)N1CCC(n2nccc2-c2cnc(NCCO)nc2)CC1 | -7.067%
CCOCCNC(=O)c1cc(Br)c2c(c1)OCCO2 | 22.67%
CNC(=O)CN1CCC(NC2CSCCc3ccccc32)CC1 (centres unmarked) | 14.06%
CCS(=O)(=O)N1CCc2c(cccc2NCc2nc(C)c(C)o2)C1 | 9.272%
CN(Cc1ccccc1)CC(C)(C)NC(=O)c1cnccn1 | -0.5877%
Cc1nccn1CCCN1CCC(c2nccn2CC2CCC2)CC1 | -12.08%
[H][C@]12CC[C@@]3(N=C(C)N(CC)C3=O)[C@@]1([H])CN(C(=O)Nc1ccc(F)cc1)C2 | 1.585%
O=C(O)C(F)(F)F.[H][C@@]12CCN(CC3CCC3)C[C@@]1([H])[C@H](C(=O)NC1CC1)CCO2 | -6.481%
CCC(Nc1nc(CCN)nc2ccccc12)c1cccs1 (centres unmarked) | 21.68%
Cc1nc(C)n(CC2CCCN2Cc2nc(C)c3ccccc3n2)n1 (centres unmarked) | -2.844%
O=C(O)C(F)(F)F.[H][C@@]12CCCO[C@]1([H])[C@H](NC(=O)N(C)C)CN2Cc1ccc2c(c1)OCO2 | 33.45%
CCN(C)c1ccc(CNS(=O)(=O)CC2CCCO2)cc1F (centres unmarked) | -1.125%
O=C(NCc1ccc2c(c1)OCO2)[C@H]1C=CCN1c1ncccn1 | 6.472%
[H][C@]12CC[C@]([H])(CN(C3CCOCC3)C1)N(Cc1ccc(N(C)C)nc1)C2 | 1.404%
Cc1cc(C)cc(NC(=O)Nc2c(O)oc3ccccc3c2=O)c1 | 6.524%
O=C(NCc1sc2ccccc2c1Cl)c1cc2n(n1)CCNC2 | -5.109%
Cn1cc(-c2cc(C(=O)N3CCOCC3)c3ccc(F)cc3n2)cn1 | -28.84%
CC1(C(N)=O)CN(CC2CCOCC2)CCO1 (centres unmarked) | -51.11%
OC1CN(Cc2cccc(N3CCOCC3)c2)Cc2ccccc21 (centres unmarked) | -45.42%
COCCN1CCN(CC(=O)N(C)Cc2ccsc2)CC1C (centres unmarked) | 6.428%
CN1C(=O)CC2(CCNCC2)c2ccccc21 | 5.724%